Values quoted from earlier work in paper PMC11597746 (Pharmaceutics, 2024).

Conditions: patients taking lorlatinib compared to controls; cited from earlier work

CC(C)(C(=O)O)c1ccc(C(O)CCCN2CCC(C(O)(c3ccccc3)c3ccccc3)CC2)cc1 (centres unmarked) [fexofenadine]
decrease in AUC0–∞: 67%
decrease in Cmax: 63%
